Data published in publication PMC4041461.
For at least one entry, the source does not settle the construct or the ends of the probe. Where cells or extracts were used, other partners may take part. For some of these results: Negatives hold for the conditions tested. For some of these results: Protein sequences can lack the tags named with them.

Assays:
Assay in all cases: pull-down
Conditions in all cases: 3' biotin; pull-down: RNA on streptavidin beads blocked in 10 mM Tris-HCl pH 7.5, 100 mM KCl, 0.1 mM EDTA, 1 mM DTT, 0.01% Triton X-100, BSA, tRNA; extract 1 h at 30 °C; protein in an extract; label: biotin
[1] = target: Tropomyosin alpha 4 (Homo sapiens) (UniProt P67936)
[2] = target: RPS9 (Homo sapiens) (UniProt P46781)
[3] = target: Y-box-binding protein 3 (Homo sapiens) (UniProt P16989)
[4] = target: hnRNPA3 (Homo sapiens) (UniProt P51991)
[5] = target: YB-1 (Homo sapiens) (UniProt P67809)
[6] = target: RPL27a (Homo sapiens) (UniProt P46776)
[7] = target: G3BP2 (Homo sapiens) (UniProt Q9UN86)
[8] = target: RPS2 (Homo sapiens) (UniProt P15880)
[9] = target: Nucleolin (native) (Homo sapiens) (UniProt P19338)
[10] = target: RPL26 (Homo sapiens) (UniProt P61254)
[11] = target: T1, RBM14 (Homo sapiens) (UniProt Q96PK6)
T1 sequence (looked up, limits assumed): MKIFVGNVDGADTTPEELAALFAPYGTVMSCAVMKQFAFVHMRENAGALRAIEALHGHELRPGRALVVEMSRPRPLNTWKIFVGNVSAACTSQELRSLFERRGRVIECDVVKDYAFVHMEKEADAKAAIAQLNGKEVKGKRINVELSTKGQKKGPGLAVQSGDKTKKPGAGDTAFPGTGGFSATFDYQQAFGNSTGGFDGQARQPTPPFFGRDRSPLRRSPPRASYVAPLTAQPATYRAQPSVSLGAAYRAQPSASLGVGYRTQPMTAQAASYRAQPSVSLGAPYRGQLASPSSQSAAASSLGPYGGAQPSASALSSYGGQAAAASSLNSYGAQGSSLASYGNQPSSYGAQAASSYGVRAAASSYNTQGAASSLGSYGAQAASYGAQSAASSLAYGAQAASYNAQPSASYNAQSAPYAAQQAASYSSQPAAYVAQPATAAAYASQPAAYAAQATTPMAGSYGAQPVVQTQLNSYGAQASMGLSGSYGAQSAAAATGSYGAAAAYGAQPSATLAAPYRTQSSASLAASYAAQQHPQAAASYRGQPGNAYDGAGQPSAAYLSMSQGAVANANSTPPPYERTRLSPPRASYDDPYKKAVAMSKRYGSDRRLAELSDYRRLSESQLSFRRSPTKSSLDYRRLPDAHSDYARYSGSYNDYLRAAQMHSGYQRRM

[12] = target: RPL14 (Homo sapiens) (UniProt P50914)
[13] = target: RPL19 (Homo sapiens) (UniProt P84098)
[14] = target: EFHD2 (native) (Homo sapiens) (UniProt Q96C19)
[15] = target: SRSF9 (Homo sapiens) (UniProt Q13242)
[16] = target: U2AF65 (native) (Homo sapiens) (UniProt P26368)
[17] = system: Actin (Homo sapiens)
[18] = target: T2, hnRNPH (Homo sapiens) (UniProt P31943)
T2 sequence (looked up, limits assumed): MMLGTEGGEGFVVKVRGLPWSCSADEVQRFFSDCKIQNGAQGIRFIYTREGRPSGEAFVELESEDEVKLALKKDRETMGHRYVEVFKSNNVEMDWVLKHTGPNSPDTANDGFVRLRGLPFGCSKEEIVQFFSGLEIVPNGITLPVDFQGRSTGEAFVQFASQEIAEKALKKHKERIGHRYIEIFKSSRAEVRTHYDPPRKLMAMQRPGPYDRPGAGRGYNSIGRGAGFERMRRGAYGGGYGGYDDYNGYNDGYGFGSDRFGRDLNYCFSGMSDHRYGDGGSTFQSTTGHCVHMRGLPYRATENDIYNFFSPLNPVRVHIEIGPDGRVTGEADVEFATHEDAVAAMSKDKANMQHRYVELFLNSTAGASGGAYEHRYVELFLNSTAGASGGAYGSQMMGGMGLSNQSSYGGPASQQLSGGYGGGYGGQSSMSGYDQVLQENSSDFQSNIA

[19] = target: T3, hnRNPF (Homo sapiens) (UniProt P52597)
T3 sequence (looked up, limits assumed): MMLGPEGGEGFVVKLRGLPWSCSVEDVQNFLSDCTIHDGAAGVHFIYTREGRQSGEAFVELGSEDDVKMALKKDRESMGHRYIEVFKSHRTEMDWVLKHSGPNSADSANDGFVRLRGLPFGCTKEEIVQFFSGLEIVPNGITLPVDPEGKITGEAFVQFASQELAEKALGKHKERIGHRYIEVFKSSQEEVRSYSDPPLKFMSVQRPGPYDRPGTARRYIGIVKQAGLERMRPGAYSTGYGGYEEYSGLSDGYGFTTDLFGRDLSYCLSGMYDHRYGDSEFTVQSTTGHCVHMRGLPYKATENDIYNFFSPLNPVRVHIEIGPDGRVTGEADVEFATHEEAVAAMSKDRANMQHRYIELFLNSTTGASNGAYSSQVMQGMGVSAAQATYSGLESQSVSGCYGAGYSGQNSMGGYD

[20] = target: RPS6 (Homo sapiens) (UniProt P62753)
[21] = target: SRSF1 (native) (Homo sapiens) (UniProt Q07955)
[22] = target: RPL12 (Homo sapiens) (UniProt P30050)
[23] = target: RPL10 (Homo sapiens) (UniProt P27635)
[24] = target: RPL7 (Homo sapiens) (UniProt P18124)
[25] = target: RPL6 (Homo sapiens) (UniProt Q02878)

## AGCCGGGGGCUGGGCGGGGACCGGGCUUGU [ARPC2 GQ]
[1]
  binding result: binds
[2]
  binding result: binds
[3]
  binding result: binds
[4]
  binding result: no binding
[5]
  binding result: binds
[6]
  binding result: binds
[7]
  binding result: binds
[8]
  binding result: binds
[9]
  binding result: binds
[10]
  binding result: binds
[11]
  binding result: binds
[12]
  binding result: binds
[13]
  binding result: binds
[14]
  binding result: binds
[15]
  binding result: binds
[16]
  binding result: binds
[17]
  binding result: binds
[18]
  binding result: binds
[19]
  binding result: binds
[20]
  binding result: binds
[21]
  binding result: binds
[22]
  binding result: binds
[23]
  binding result: binds
[24]
  binding result: binds
[25]
  binding result: binds
